PubChem BioAssay AID248 (DTP/NCI, 2004)
The list shows only some results of the screen, not a fair sample: it gathers tests that were run many times, whatever their T/C, doses with no T/C, and many T/C values between a quarter and a half above the control. Further doses and runs are listed elsewhere. T/C is the treated group as % of the vehicle group. Some doses have a count of surviving animals in place of a T/C: the source holds a T/C of zero for them, seemingly a mark for toxic or unscored doses. Some survivor counts are full or nearly so, which does not show that the dose was tolerated: the source hardly ever lists a survival T/C far under the control, and the zero likely stands for such cases as well. Survivors were counted at the toxicity check, usually on the fifth day, unless a day is given; later deaths do not show. Schedules are NCI's codes, taken here to give the interval after Q, in days (D) or hours (H), and the number of doses after X. Some schedule codes hold Z or #, which are not explained here. For survival time, the PubChem record calls one and a half times the control and up active, and a quarter to a half above the control has no call in these data; cut-offs in other NCI protocols can differ. Some doses were run more than once; their values stand side by side, smallest first. Brackets with × stand for listed records that agree. Some T/C values carry the count of animals alive at the toxicity check (mostly the fifth day); where none is given, no animal had died by that day.

System: L1210 leukemia ip in BDF1 mice, survival T/C
Test: NCI In Vivo Anticancer Drug Screen. Data for tumor model L1210 Leukemia (intraperitoneal) in B6D2F1 (BDF1) mice
Settings: T/C endpoint: mean survival time, higher T/C = longer survival
[1] = dose: 400.0 mg/kg/injection, schedule: Q04DX003 (ip), vehicle: saline with Tween-80
[2] = dose: 400.0 mg/kg/injection, schedule: Q01DX001 (ip), vehicle: carboxymethylcellulose (CMC)
[3] = dose: 400.0 mg/kg/injection, schedule: Q04DX003 (ip), vehicle: Klucel (hydroxypropylcellulose) (HPC)
[4] = dose: 100.0 mg/kg/injection, schedule: Q01DX009 (ip), vehicle: saline with Tween-80
[5] = dose: 200.0 mg/kg/injection, schedule: Q01DX009 (ip), vehicle: saline with Tween-80
[6] = dose: 400.0 mg/kg/injection, schedule: Q01DX009 (ip), vehicle: saline with Tween-80
[7] = dose: 400.0 mg/kg/injection, schedule: Q01DX009 (ip), vehicle: Klucel (hydroxypropylcellulose) (HPC)
[8] = dose: 400.0 mg/kg/injection, schedule: Q04DX003 (ip), vehicle: saline

Question: `CCCCCCCCCCC(=O)OCC1OC2C(Oc3nc(=N)ccn32)C1OC(=O)CCCCCCCCCC` (stereo not given) was tested. Which T/C (dose: 12.5 mg/kg/injection, schedule: Q01DX009 (ip), vehicle: water) did it give?
Answer: Its T/C is 138 % of control.

Question: What about the survivor count (dose: 100.0 mg/kg/injection, schedule: Q01DX009 (ip), vehicle: water) of the same molecule?
Answer: The survivor count was 5 of 6.

Question: And the survivor count (dose: 200.0 mg/kg/injection, schedule: Q01DX009 (ip), vehicle: water)?
Answer: The survivor count was 1 of 6.

Question: `C=CN1C(=O)N(C=C)C(C)(CC(C)C)C1=O` (stereo not given) was tested. Which survivor count [1] did it give?
Answer: Its survivor count is 6 of 6.

Question: Which T/C (dose: 18.25 mg/kg/injection, schedule: Q01DX015 (ip), vehicle: carboxymethylcellulose (CMC), evaluated on day 5) does the source give for `N#CCC(N)=C(C#N)C#N` here?
Answer: The T/C was 86, 96, 100 % of control.

Question: What about the T/C (dose: 18.25 mg/kg/injection, schedule: Q01DX015 (ip), vehicle: carboxymethylcellulose (CMC), evaluated on day 30) of the same molecule?
Answer: Its T/C is 86, 96, 100 % of control.

Question: What about the T/C (dose: 37.5 mg/kg/injection, schedule: Q01DX015 (ip), vehicle: carboxymethylcellulose (CMC), evaluated on day 5) of the same molecule?
Answer: Its T/C is 86, 91, 93, 107 % of control.

Question: And the T/C (dose: 37.5 mg/kg/injection, schedule: Q01DX015 (ip), vehicle: carboxymethylcellulose (CMC), evaluated on day 30)?
Answer: Its T/C is 86, 91, 93 % of control.

Question: And the T/C (dose: 75.0 mg/kg/injection, schedule: Q01DX015 (ip), vehicle: carboxymethylcellulose (CMC), evaluated on day 5)?
Answer: The T/C was 86, 93, 100 % of control (2×).

Question: And the T/C (dose: 75.0 mg/kg/injection, schedule: Q01DX015 (ip), vehicle: carboxymethylcellulose (CMC), evaluated on day 30)?
Answer: Its T/C is 86, 93, 100 % of control.

Question: And the T/C (dose: 150.0 mg/kg/injection, schedule: Q01DX015 (ip), vehicle: carboxymethylcellulose (CMC), evaluated on day 5)?
Answer: Its T/C is 87, 89, 91, 93 % of control.

Question: What about the T/C (dose: 150.0 mg/kg/injection, schedule: Q01DX015 (ip), vehicle: carboxymethylcellulose (CMC), evaluated on day 30) of the same molecule?
Answer: The T/C was 87, 91, 93 % of control [4 of 6 alive].

Question: What about the survivor count (dose: 150.0 mg/kg/injection, schedule: Q01DX Z (ip), vehicle: carboxymethylcellulose (CMC)) of the same molecule?
Answer: Its survivor count is 0 of 6.

Question: What about the survivor count (dose: 300.0 mg/kg/injection, schedule: Q01DX015 (ip), vehicle: carboxymethylcellulose (CMC)) of the same molecule?
Answer: The survivor count was 6 of 6.

Question: And the survivor count [2]?
Answer: The survivor count was 1 of 4.

Question: What does the source list for `CNC(=O)Oc1cccc2c1OC(C)(C)C2`?
Answer: survivor count (dose: 6.25 mg/kg/injection, schedule: Q01DX001 (ip), vehicle: Klucel (hydroxypropylcellulose) (HPC)): 1 of 6; survivor count (dose: 12.5 mg/kg/injection, schedule: Q01DX001 (ip), vehicle: Klucel (hydroxypropylcellulose) (HPC)): 0 of 6; survivor count (dose: 25.0 mg/kg/injection, schedule: Q01DX001 (ip), vehicle: Klucel (hydroxypropylcellulose) (HPC)): 0 of 6; survivor count (dose: 50.0 mg/kg/injection, schedule: Q01DX001 (ip), vehicle: Klucel (hydroxypropylcellulose) (HPC)): 0 of 6; survivor count (dose: 100.0 mg/kg/injection, schedule: Q01DX001 (ip), vehicle: Klucel (hydroxypropylcellulose) (HPC)): 1 of 6; survivor count (dose: 200.0 mg/kg/injection, schedule: Q01DX001 (ip), vehicle: Klucel (hydroxypropylcellulose) (HPC)): 0 of 6; survivor count (dose: 400.0 mg/kg/injection, schedule: Q01DX001 (ip), vehicle: Klucel (hydroxypropylcellulose) (HPC)): 0 of 6

Question: With `C[n+]1ccc(C#N)c2ccccc21` as the molecule, how does the survivor count (dose: 25.0 mg/kg/injection, schedule: Q01DX009 (ip), vehicle: saline) read?
Answer: Its survivor count is 4 of 6.

Question: What about the survivor count (dose: 25.0 mg/kg/injection, schedule: Q04DX003 (ip), vehicle: saline) of the same molecule?
Answer: Its survivor count is 2 of 6.

Question: What about the survivor count (dose: 50.0 mg/kg/injection, schedule: Q01DX009 (ip), vehicle: saline) of the same molecule?
Answer: The survivor count was 0 of 6.

Question: And the survivor count (dose: 50.0 mg/kg/injection, schedule: Q04DX003 (ip), vehicle: saline)?
Answer: Its survivor count is 0 of 6.

Question: For `Fc1c(F)c(-c2c(F)c(F)c(S)c(F)c2F)c(F)c(F)c1S`, which survivor count (dose: 400.0 mg/kg/injection, schedule: Q04DX002 (ip), vehicle: saline with Tween-80) is on record?
Answer: Its survivor count is 0 of 3.

Question: For `CC1(C)C=C(C(Br)c2ccc(Cl)cc2)C(=O)c2ccccc21` (stereo not given), which survivor count [3] is on record?
Answer: Its survivor count is 6 of 6.

Question: For `CNc1ccc(/C=C2\C=Cc3ccccc32)cc1`, which survivor count (dose: 400.0 mg/kg/injection, schedule: Q01DX Z (ip), vehicle: carboxymethylcellulose (CMC)) is on record?
Answer: The survivor count was 3 of 6.

Question: Which results are given for `Cc1ccc(C)c(NC(=S)NC(=O)c2ccc(Cl)cc2Cl)c1`?
Answer: T/C [4]: 93 (2×), 95, 101 % of control; T/C [5]: 92, 93, 110 % of control; survivor count [5]: 6 of 6; T/C [6]: 93, 95, 96, 99 % of control

Question: `O=C(Cl)C1C(c2ccccc2)C1c1ccccc1` (stereo not given) was tested. Which survivor count (dose: 200.0 mg/kg/injection, schedule: Q04DX003 (ip), vehicle: saline with Tween-80) did it give?
Answer: Its survivor count is 2 of 6.

Question: What about the survivor count [1] of the same molecule?
Answer: Its survivor count is 0 of 6.

Question: For `Cc1c2ccnc(-c3ccccc3)c2cc2c1[nH]c1ccccc12`, which survivor count (dose: 1000.0 mg/kg/injection, schedule: Q01DX015 (oral), vehicle: carboxymethylcellulose (CMC)) is on record?
Answer: Its survivor count is 6 of 6.

Question: And the survivor count (dose: 2000.0 mg/kg/injection, schedule: Q01DX015 (oral), vehicle: carboxymethylcellulose (CMC))?
Answer: Its survivor count is 6 of 6.

Question: How did the survivor count [6] turn out when `O=C(O)CSC(=S)c1ccccc1` was run?
Answer: Its survivor count is 2 of 6.

Question: How did the survivor count [6] turn out when `CCC(=O)c1ccc(OC(=O)Nc2ccc(Cl)cc2[N+](=O)[O-])cc1` was run?
Answer: Its survivor count is 5 of 6.

Question: How did the survivor count [6] turn out when `COC(CN(C)C(=O)NC1CCCCC1)OC` was run?
Answer: Its survivor count is 3 of 6.

Question: For `COC(=O)c1ccc([N+](=O)[O-])o1`, which survivor count [7] is on record?
Answer: Its survivor count is 1 of 3.

Question: Which survivor count (dose: 400.0 mg/kg/injection, schedule: Q01DX001 (ip), vehicle: olive oil, sesame oil, peanut oil) does the source give for `O=C(O)C1OC1(c1cccc(Cl)c1)c1ccccc1Cl` (stereo not given) here?
Answer: Its survivor count is 1 of 4.

Question: For `O=S1(=O)CC(O)C(Cl)C1` (stereo not given), which survivor count [8] is on record?
Answer: Its survivor count is 3 of 6.

Question: For `CC(=O)Nc1cc2ccccc2[n+](C)c1`, which survivor count (dose: 100.0 mg/kg/injection, schedule: Q04DX003 (ip), vehicle: Klucel (hydroxypropylcellulose) (HPC)) is on record?
Answer: Its survivor count is 1 of 6.

Question: What about the survivor count (dose: 200.0 mg/kg/injection, schedule: Q04DX003 (ip), vehicle: Klucel (hydroxypropylcellulose) (HPC)) of the same molecule?
Answer: Its survivor count is 6 of 6.

Question: And the survivor count [3]?
Answer: The survivor count was 4 of 6.

Question: Which survivor count (dose: 400.0 mg/kg/injection, schedule: Q01DX001 (ip), vehicle: saline) does the source give for `COc1ccc(N)cc1NC(C)=O` here?
Answer: Its survivor count is 0 of 4.

Question: Which survivor count (dose: 200.0 mg/kg/injection, schedule: Q01DX001 (ip), vehicle: acetone) does the source give for `CC(C)CN1CCCC(=O)C(O)CCC1` (stereo not given) here?
Answer: Its survivor count is 1 of 6.

Question: And the survivor count (dose: 400.0 mg/kg/injection, schedule: Q01DX001 (ip), vehicle: acetone)?
Answer: The survivor count was 1 of 6.

Question: With `CCn1c2ccccc2c2cc(C=O)ccc21` as the molecule, how does the survivor count (dose: 100.0 mg/kg/injection, schedule: Q01DX009 (ip), vehicle: other) read?
Answer: Its survivor count is 3 of 3.

Question: How did the survivor count (dose: 300.0 mg/kg/injection, schedule: Q01DX001 (ip), vehicle: saline) turn out when `NCCSC1(O)C(=O)c2ccccc2C1=O` was run?
Answer: Its survivor count is 2 of 6.

Question: With `Cc1ccc(/C=C(\C#N)C(=O)O)cc1` as the molecule, how does the survivor count [4] read?
Answer: The survivor count was 1 of 3.

Question: And the survivor count [5]?
Answer: The survivor count was 1 of 3.

Question: What does the source list for `CC(C)(C)c1ccc(SCCN=C(N)CSSCC(N)=NCCSc2ccc(C(C)(C)C)cc2)cc1`?
Answer: survivor count (dose: 100.0 mg/kg/injection, schedule: Q04DX003 (ip), vehicle: carboxymethylcellulose (CMC)): 0 of 6; survivor count (dose: 200.0 mg/kg/injection, schedule: Q04DX003 (ip), vehicle: carboxymethylcellulose (CMC)): 0 of 6; survivor count (dose: 400.0 mg/kg/injection, schedule: Q04DX003 (ip), vehicle: carboxymethylcellulose (CMC)): 0 of 6

Question: With `CC1=CCC2C(=O)C=CC(=O)C2C1` (stereo not given) as the molecule, how does the survivor count (dose: 40.0 mg/kg/injection, schedule: Q01DX009 (ip), vehicle: Klucel (hydroxypropylcellulose) (HPC)) read?
Answer: The survivor count was 0 of 6.

Question: And the survivor count (dose: 100.0 mg/kg/injection, schedule: Q01DX001 (ip), vehicle: carboxymethylcellulose (CMC))?
Answer: Its survivor count is 1 of 4.

Question: And the survivor count (dose: 200.0 mg/kg/injection, schedule: Q01DX001 (ip), vehicle: carboxymethylcellulose (CMC))?
Answer: Its survivor count is 1 of 4.

Question: What about the survivor count [2] of the same molecule?
Answer: Its survivor count is 1 of 4.

Question: Which survivor count (dose: 400.0 mg/kg/injection, schedule: Q01DX009 (ip), vehicle: other) does the source give for `Nc1cccc2cn[nH]c12` here?
Answer: Its survivor count is 3 of 6.

Question: Which survivor count [8] does the source give for `O=C(Cc1ccccc1)Nc1ccc[n+](Cc2ccc(S(=O)(=O)F)cc2)c1` here?
Answer: The survivor count was 2 of 6.

Question: `Cc1cc(Cl)ccc1NC(=O)COc1ccc(Cl)cc1` was tested. Which survivor count (dose: 100.0 mg/kg/injection, schedule: Q01DX009 (ip), vehicle: Klucel (hydroxypropylcellulose) (HPC)) did it give?
Answer: Its survivor count is 6 of 6.

Question: What about the survivor count (dose: 200.0 mg/kg/injection, schedule: Q01DX009 (ip), vehicle: Klucel (hydroxypropylcellulose) (HPC)) of the same molecule?
Answer: The survivor count was 3 of 6.

Question: And the survivor count [7]?
Answer: The survivor count was 4 of 6.
